This note sets out measurements from patent US5644024 (dated 1997).

A short description of the data set: general procedure: hybrid (solid and solution phase) peptide synthesis; aminomethyl-polystyrene resin; EDC hydrochloride/HOBt (solution); TBTU/DIPEA (on resin). As to conditions: for step yield: coupling step.

With “[(12R,15R,18R)-12,15-dimethyl-10,13,16-trioxo-10,11,12,13,14,15,16,-17,18,19,20,21-dodecahydro-1,1 8-etheno-dibenz[b,n][1,5,8,11]oxatriazacyclopentadecen-18-ylcarbonyl]-L-alanyl-L-alanyl-L-alanyl-L-alanyl-L-alanyl-L-alanyl-(2-amino-2-methyl-propionyl)-L-alanyl-L-alanine (4-iodophenyl)amide”, the step yield worked out at 87.7%.
On to “[(12S, 15S,18S)-12,15-dimethyl-10,13,16-trioxo-10,11,12,13,14,15, 16,17,18,19,20,21-dodecahydro-1,1 8-etheno-dibenz[b,n][1,5,8, 11]oxatriazacyclopentadecen-18-ylcarbonyl]-L-alanyl-L-alanyl-L-alanyl-L-alanyl-L-alanyl-L-alanyl-(2-amino-2-methyl-propionyl)-L-alanyl-L-alanine (4-iodophenyl)amide”, for which the step yield turned out to be 91.8%. Moreover, for the setting “cyclisation step”, the cyclisation yield was 67%.
